This is one part of the list. Hit calls seldom repeat between salt and free forms of one compound.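 Kinases, fused to nanoluciferase, were expressed in K562 cells; luminescence was measured every 4 h from 2 to 18 h as percent of control (DMSO = 100%, positive control = 0%). A time point is decreased if signal falls significantly (2 sigma). Hits were called by the authors by a rule that is not shown; the count of time points alone does not decide it.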
Experiments:
Assay in all cases: kinase-Nluc reporter destabilization hit call (1 = scored as downregulated) (binary); higher = compound decreases kinase abundance
Conditions in all cases: K562; 2-18 h
[1] = molecular target: RET (UniProt P07949)
[2] = molecular target: RET_M918T (clone: RET_mut) (UniProt P07949)
[3] = molecular target: RIOK1 (UniProt Q9BRS2)
[4] = molecular target: RIPK1 (UniProt Q13546)
[5] = molecular target: RIPK2 (UniProt O43353)
[6] = molecular target: ROR2 (UniProt Q01974)
[7] = molecular target: RPS6KA1 (UniProt Q15418)
[8] = molecular target: SPHK1 (UniProt Q9NYA1)
[9] = molecular target: SRC (UniProt P12931)
[10] = molecular target: STK24 (UniProt Q9Y6E0)

Sequences of proteins named here, by UniProt entry; tags and fusion partners are left off. A change or cut given only in a name is not applied to a line headed by its entry.
UniProt P07949, whole entry, looked up: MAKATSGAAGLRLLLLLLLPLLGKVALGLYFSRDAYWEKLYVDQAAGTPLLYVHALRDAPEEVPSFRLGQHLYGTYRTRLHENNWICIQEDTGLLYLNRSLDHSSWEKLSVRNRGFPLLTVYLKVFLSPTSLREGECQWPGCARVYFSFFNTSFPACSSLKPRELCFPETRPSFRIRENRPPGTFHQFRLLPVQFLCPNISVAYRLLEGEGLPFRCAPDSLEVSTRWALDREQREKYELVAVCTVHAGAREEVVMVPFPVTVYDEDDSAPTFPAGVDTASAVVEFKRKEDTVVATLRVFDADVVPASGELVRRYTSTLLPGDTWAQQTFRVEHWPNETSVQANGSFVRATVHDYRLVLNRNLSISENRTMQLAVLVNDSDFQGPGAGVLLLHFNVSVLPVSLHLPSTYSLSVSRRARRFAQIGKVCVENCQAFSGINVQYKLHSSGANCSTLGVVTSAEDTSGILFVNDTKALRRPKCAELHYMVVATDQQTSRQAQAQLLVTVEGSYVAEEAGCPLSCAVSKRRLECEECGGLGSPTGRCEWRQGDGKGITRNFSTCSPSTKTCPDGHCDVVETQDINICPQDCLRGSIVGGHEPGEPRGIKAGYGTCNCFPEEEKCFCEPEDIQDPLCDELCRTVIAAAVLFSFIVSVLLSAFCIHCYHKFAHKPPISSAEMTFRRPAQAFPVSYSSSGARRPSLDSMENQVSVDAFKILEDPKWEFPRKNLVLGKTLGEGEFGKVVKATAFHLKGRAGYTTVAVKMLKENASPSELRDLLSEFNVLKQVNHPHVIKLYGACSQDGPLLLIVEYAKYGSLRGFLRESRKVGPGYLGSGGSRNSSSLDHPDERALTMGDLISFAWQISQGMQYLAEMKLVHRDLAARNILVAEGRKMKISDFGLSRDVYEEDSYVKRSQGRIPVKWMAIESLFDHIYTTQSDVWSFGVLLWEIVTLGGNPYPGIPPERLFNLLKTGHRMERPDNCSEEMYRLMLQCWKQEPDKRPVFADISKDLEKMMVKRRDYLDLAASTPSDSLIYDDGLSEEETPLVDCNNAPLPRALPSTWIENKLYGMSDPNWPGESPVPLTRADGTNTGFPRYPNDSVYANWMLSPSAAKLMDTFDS
UniProt P07949, whole entry M918T, looked up: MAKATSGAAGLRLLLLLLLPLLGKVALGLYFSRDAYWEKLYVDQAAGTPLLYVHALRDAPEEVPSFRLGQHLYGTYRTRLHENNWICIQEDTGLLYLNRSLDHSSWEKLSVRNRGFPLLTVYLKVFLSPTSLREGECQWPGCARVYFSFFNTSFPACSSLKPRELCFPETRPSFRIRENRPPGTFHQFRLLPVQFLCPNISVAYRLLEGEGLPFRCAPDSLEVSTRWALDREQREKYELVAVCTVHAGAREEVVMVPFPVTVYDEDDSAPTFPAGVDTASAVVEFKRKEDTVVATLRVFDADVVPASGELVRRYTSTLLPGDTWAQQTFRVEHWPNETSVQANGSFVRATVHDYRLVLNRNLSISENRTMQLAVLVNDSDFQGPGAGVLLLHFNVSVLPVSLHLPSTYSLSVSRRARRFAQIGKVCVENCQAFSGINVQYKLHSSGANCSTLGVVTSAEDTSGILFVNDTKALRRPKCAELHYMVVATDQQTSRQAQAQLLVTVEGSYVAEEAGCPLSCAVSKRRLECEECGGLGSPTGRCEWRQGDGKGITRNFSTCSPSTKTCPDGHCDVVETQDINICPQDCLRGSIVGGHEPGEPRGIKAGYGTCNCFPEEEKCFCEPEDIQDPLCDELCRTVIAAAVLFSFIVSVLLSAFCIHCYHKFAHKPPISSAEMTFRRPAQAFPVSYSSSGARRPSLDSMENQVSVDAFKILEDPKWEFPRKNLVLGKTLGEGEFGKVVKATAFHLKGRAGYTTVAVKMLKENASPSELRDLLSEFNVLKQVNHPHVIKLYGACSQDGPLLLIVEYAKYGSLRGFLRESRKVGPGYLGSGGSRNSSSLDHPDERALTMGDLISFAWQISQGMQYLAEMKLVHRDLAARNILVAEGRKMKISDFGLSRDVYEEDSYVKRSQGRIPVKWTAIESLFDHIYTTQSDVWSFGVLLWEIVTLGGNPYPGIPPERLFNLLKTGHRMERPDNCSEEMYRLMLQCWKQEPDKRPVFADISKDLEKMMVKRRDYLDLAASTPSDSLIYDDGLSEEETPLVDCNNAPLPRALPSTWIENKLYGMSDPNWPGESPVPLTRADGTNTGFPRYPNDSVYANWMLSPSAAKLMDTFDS
UniProt Q9BRS2: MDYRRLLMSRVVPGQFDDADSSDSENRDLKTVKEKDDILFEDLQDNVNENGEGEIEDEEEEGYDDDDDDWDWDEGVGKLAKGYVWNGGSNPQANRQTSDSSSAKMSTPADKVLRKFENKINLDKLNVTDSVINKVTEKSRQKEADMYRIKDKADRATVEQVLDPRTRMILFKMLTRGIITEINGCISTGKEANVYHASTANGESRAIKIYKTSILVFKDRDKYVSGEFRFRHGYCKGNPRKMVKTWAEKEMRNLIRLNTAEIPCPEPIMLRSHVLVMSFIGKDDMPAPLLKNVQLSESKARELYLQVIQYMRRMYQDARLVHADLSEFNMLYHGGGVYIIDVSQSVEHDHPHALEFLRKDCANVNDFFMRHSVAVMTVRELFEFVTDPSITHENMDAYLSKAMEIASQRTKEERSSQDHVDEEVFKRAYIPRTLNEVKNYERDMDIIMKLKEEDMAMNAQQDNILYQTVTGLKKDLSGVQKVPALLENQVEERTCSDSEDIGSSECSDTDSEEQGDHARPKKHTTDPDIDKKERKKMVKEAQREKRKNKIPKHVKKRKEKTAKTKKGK
UniProt Q13546: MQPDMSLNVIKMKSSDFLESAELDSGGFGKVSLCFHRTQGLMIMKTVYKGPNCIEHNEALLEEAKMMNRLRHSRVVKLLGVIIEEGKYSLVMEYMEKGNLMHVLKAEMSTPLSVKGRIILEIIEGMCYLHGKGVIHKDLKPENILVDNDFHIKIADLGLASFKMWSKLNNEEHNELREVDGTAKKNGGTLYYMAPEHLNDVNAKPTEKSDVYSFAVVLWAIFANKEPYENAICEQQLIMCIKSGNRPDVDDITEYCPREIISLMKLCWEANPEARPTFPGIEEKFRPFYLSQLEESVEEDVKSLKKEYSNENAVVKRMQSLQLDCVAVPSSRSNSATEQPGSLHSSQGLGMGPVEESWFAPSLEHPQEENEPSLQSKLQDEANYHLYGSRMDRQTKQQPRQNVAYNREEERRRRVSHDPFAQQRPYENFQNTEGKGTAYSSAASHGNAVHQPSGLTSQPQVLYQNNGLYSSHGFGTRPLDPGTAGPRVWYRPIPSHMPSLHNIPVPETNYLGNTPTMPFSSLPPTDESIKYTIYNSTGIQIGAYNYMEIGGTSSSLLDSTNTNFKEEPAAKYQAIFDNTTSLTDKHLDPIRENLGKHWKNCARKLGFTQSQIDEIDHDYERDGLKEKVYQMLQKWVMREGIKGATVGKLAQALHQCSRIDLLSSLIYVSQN
UniProt Q01974, whole entry: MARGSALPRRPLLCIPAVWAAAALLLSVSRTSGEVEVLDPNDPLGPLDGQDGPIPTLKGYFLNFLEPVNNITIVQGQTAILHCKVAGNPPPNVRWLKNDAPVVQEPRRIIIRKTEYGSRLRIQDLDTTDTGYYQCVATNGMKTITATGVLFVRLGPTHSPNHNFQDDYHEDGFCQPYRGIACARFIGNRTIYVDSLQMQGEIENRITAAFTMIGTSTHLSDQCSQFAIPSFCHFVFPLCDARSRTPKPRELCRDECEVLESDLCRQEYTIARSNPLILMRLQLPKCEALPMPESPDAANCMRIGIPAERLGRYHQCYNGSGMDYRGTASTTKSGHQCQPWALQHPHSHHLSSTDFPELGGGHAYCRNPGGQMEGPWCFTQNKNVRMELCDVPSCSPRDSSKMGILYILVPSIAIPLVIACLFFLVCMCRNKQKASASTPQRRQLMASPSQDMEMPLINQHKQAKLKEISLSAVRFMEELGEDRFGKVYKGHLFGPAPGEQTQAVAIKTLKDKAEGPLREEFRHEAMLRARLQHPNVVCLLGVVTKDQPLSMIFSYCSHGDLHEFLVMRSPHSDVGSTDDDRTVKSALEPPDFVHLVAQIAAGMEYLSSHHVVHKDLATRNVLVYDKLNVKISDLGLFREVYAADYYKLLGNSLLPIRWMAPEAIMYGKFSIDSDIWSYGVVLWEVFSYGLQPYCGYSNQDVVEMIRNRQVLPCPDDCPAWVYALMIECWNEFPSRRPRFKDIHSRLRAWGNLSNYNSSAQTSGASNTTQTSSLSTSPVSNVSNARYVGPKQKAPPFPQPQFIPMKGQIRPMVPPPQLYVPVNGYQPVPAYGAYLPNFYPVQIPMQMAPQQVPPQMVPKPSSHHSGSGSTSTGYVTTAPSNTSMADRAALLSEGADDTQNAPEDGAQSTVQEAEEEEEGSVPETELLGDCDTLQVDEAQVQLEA
UniProt Q15418, whole entry: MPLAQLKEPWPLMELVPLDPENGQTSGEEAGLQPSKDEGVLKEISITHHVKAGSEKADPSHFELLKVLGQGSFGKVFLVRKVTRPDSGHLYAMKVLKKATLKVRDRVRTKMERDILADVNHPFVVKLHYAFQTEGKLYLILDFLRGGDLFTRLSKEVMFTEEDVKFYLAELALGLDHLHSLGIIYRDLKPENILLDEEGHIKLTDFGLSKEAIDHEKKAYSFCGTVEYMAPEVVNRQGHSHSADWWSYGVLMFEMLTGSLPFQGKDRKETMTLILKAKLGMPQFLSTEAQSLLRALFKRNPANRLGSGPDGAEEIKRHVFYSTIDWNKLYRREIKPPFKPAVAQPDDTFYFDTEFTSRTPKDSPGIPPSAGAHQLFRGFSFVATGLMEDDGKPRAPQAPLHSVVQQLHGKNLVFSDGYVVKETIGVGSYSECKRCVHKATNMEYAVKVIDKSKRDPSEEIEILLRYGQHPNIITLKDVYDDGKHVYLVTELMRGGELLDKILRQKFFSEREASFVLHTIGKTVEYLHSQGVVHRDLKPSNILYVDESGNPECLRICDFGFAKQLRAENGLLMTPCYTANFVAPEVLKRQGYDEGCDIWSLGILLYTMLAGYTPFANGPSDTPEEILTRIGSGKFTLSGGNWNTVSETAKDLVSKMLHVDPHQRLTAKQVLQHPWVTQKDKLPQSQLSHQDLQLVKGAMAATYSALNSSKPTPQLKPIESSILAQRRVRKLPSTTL
UniProt Q9NYA1, whole entry: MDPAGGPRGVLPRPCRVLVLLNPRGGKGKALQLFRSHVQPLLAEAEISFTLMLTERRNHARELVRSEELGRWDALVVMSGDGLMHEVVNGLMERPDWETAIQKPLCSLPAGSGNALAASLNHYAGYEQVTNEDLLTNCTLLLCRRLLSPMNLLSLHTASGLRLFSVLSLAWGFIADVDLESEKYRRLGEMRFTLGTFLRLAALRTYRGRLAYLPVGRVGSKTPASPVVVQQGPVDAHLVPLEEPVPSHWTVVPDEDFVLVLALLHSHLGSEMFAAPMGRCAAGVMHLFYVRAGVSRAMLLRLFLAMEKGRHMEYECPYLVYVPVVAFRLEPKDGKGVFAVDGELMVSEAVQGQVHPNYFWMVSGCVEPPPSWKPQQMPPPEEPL
UniProt Q9Y6E0: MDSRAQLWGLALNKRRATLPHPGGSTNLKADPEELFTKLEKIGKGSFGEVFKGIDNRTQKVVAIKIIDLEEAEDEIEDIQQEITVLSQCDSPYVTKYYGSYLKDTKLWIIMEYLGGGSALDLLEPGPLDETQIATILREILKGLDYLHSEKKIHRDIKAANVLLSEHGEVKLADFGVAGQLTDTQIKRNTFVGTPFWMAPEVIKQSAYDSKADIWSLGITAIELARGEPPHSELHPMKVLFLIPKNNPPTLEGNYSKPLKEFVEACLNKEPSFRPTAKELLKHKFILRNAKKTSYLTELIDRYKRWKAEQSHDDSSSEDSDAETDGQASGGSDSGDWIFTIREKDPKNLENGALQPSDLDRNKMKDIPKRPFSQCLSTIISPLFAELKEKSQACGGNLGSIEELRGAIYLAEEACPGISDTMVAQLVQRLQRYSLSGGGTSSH

Measured: kinase-Nluc reporter destabilization hit call

COC1(c2sc3c(N4CCOCC4)nc(-c4cnc(N)nc4)nc3c2C)COC1 (2.5 µM)
inactive: [1] 0 | [2] 0 | [3] 0 | [4] 0 | [5] 0 | [6] 0 | [7] 0 | [8] 0 | [9] 0 | [10] 0

O=[N+]([O-])c1cc(C(F)(F)F)cc([N+](=O)[O-])c1NNC(=S)Nc1ccc(F)cc1 (10 µM)
inactive: [1] 0 | [2] 0 | [3] 0 | [4] 0 | [5] 0 | [6] 0 | [7] 0 | [8] 0 | [9] 0 | [10] 0

C[C@@H]1C(=O)O[C@H](C)[C@H]1C[C@@H](O)[C@](C)(O)[C@H]1CC[C@@]2(O)C3=CC(=O)[C@@H]4C[C@@H](O)[C@@H](O)C[C@]4(C)[C@H]3CC[C@]12C [Cyasterone] (10 µM)
inactive: [1] 0 | [2] 0 | [3] 0 | [4] 0 | [5] 0 | [6] 0 | [7] 0 | [8] 0 | [9] 0 | [10] 0

Cc1c(NC(=O)OC[C@@H]2COCCN2)cn2ncnc(Nc3ccc4c(cnn4Cc4cccc(F)c4)c3)c12 (10 µM)
inactive: [1] 0 | [2] 0 | [3] 0 | [4] 0 | [5] 0 | [6] 0 | [7] 0 | [8] 0 | [9] 0 | [10] 0

O=C(/C=C/c1ccc(O)c(O)c1)OC1CC(OC(=O)/C=C/c2ccc(O)c(O)c2)(C(=O)O)CC(O)C1O (stereo not given) [1,3-Dicaffeoylquinic acid] (10 µM)
inactive: [1] 0 | [2] 0 | [3] 0 | [4] 0 | [5] 0 | [6] 0 | [7] 0 | [8] 0 | [9] 0 | [10] 0

CCOc1cc(C(=O)N2CCC(N3CCN(C)CC3)CC2)ccc1Nc1ncc2c(n1)N(C1CCCC1)c1ccccc1C(=O)N2C (10 µM)
inactive: [1] 0 | [2] 0 | [3] 0 | [4] 0 | [5] 0 | [6] 0 | [7] 0 | [8] 0 | [9] 0 | [10] 0

CNC(=O)Nc1ccc(-c2cc(-c3ccnc(Nc4ccc(C)c(S(=O)(=O)N(C)C)c4)n3)ccn2)cc1 [hSMG-1 inhibitor 11e] (2.5 µM)
inactive: [1] 0 | [2] 0 | [3] 0 | [4] 0 | [5] 0 | [6] 0 | [7] 0 | [8] 0 | [9] 0 | [10] 0

For convenience, two of the compounds above.
C[C@@H]1C(=O)O[C@H](C)[C@H]1C[C@@H](O)[C@](C)(O)[C@H]1CC[C@@]2(O)C3=CC(=O)[C@@H]4C[C@@H](O)[C@@H](O)C[C@]4(C)[C@H]3CC[C@]12C [Cyasterone] (10 µM)
inactive: [1] 0 | [2] 0 | [3] 0 | [4] 0 | [5] 0 | [6] 0 | [7] 0 | [8] 0 | [9] 0 | [10] 0

Cc1c(NC(=O)OC[C@@H]2COCCN2)cn2ncnc(Nc3ccc4c(cnn4Cc4cccc(F)c4)c3)c12 (10 µM)
inactive: [1] 0 | [2] 0 | [3] 0 | [4] 0 | [5] 0 | [6] 0 | [7] 0 | [8] 0 | [9] 0 | [10] 0

Following part.

O=C(/C=C/c1ccc(O[C@@H]2O[C@H](CO)[C@@H](O)[C@H](O)[C@H]2O[C@@H]2OC[C@](O)(CO)[C@H]2O)cc1)c1ccc(O)cc1O [Isoliquiritin apioside] (10 µM)
inactive: [1] 0 | [2] 0 | [3] 0 | [4] 0 | [5] 0 | [6] 0 | [7] 0 | [8] 0 | [9] 0 | [10] 0

O=C(Nc1cccnc1)c1cc(C(=O)c2c(F)cccc2Br)c[nH]1 (10 µM)
inactive: [1] 0 | [2] 0 | [3] 0 | [4] 0 | [5] 0 | [6] 0 | [7] 0 | [8] 0 | [9] 0 | [10] 0

CCN(CC)S(=O)(=O)c1ccc(OC)c(N2CCN(C(=O)c3ccc(F)cc3C(F)(F)F)CC2)c1 (10 µM)
inactive: [1] 0 | [2] 0 | [3] 0 | [4] 0 | [5] 0 | [6] 0 | [7] 0 | [8] 0 | [9] 0 | [10] 0

CNCc1ccccc1-c1csc([C@@H](C)Nc2nc(C)nc3cc(OC)c(OC)cc23)c1 (2.5 µM)
inactive: [1] 0 | [2] 0 | [3] 0 | [4] 0 | [5] 0 | [6] 0 | [7] 0 | [8] 0 | [9] 0 | [10] 0

COc1ccc(Cl)cc1NC(=O)Nc1cc(C)nc2ccccc12 (2.5 µM)
inactive: [1] 0 | [2] 0 | [3] 0 | [4] 0 | [5] 0 | [6] 0 | [7] 0 | [8] 0 | [9] 0 | [10] 0

C=C(CCC=C(C)C)[C@H]1CC[C@]2(C)[C@@H]1[C@H](O)C[C@@H]1[C@@]3(C)CC[C@H](O[C@@H]4O[C@H](CO)[C@@H](O)[C@H](O)[C@H]4O[C@@H]4O[C@H](CO)[C@@H](O)[C@H](O)[C@H]4O)C(C)(C)[C@@H]3CC[C@]12C [Ginsenoside Rk1] (10 µM)
inactive: [1] 0 | [2] 0 | [3] 0 | [4] 0 | [5] 0 | [6] 0 | [7] 0 | [8] 0 | [9] 0 | [10] 0
